Data from patent US20070077603A1 (published 2007).
Results are given in words; binding and its absence hold for the method and conditions named. Some entries that bind do so weakly or less than the wild type. Values belong to the molecule of their own block, whether it stands above or below them.

The chains behind the UniProt entries cited, without tags or fusion partners. Where a name states a change or a piece, a line headed by the entry shows the natural chain unless it says otherwise.
UniProt P04003: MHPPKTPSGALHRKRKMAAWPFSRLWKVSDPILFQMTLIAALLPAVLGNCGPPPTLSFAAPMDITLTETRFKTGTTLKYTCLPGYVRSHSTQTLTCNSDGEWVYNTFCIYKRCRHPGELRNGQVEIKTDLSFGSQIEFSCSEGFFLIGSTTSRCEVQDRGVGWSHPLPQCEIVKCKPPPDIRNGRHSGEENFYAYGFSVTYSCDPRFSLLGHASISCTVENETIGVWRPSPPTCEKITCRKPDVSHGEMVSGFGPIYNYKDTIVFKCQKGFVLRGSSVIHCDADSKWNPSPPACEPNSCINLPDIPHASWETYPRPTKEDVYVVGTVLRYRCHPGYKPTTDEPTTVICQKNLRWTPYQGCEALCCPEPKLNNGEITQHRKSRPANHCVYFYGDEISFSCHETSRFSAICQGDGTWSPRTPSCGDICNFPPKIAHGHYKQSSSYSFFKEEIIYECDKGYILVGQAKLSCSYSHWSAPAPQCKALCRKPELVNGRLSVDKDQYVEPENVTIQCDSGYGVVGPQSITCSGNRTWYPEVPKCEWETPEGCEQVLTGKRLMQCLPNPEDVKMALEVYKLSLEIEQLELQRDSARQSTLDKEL
UniProt P20851: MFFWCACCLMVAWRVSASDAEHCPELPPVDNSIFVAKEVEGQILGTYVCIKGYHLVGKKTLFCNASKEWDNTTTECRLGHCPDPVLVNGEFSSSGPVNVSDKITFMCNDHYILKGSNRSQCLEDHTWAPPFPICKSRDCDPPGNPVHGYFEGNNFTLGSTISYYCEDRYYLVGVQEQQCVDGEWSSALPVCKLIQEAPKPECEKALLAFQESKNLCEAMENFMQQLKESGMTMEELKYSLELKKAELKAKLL
UniProt P00742: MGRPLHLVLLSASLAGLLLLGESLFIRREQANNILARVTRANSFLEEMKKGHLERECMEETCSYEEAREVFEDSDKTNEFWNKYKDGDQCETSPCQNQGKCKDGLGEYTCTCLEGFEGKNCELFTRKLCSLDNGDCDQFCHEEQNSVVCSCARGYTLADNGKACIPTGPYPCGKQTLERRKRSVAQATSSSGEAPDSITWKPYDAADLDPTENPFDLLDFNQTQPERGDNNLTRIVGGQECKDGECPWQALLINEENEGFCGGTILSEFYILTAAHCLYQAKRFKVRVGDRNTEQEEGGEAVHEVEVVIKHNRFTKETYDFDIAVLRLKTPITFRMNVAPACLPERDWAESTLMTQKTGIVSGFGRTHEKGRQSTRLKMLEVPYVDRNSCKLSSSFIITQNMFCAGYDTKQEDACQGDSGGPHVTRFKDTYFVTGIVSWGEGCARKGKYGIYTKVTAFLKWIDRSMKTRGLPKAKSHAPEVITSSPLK

Assays:
[1] = molecular target: Protein S-C4b-binding protein complex in fractionated hirudin-plasma (human) (UniProt P07225+P04003+P20851); assay: ligand blot from native 4-15% PAGE of Sephacryl-300 fractions of hirudin-plasma
[2] = molecular target: T1, monomeric protein S in plasma (human, UniProt P07225 42-676); assay: as above
T1 construct: mature; also called monomers
T1 sequence (looked up): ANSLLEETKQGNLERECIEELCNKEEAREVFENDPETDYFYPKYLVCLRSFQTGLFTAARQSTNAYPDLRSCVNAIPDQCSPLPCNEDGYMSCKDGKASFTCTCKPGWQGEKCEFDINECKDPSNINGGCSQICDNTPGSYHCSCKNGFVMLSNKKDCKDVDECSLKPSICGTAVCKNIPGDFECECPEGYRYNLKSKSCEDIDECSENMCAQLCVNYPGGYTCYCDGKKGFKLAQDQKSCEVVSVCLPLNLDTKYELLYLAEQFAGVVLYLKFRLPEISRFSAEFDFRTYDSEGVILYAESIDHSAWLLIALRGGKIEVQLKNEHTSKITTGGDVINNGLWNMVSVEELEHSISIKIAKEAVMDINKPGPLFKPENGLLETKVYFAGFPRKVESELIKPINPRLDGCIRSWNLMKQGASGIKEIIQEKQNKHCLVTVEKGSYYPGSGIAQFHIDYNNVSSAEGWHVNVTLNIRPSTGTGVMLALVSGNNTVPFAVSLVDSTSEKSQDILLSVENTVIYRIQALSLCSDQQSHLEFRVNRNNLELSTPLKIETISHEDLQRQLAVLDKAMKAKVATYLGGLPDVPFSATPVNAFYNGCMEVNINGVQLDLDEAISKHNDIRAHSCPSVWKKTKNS
Procedure: (§1) Gel filtration - - - Purified protein S preparations or hirudin-plasma (200 μl ) were fractionated on a 1×30 cm Superose-6 HR column using Fast Performance Liquid Chromatography (Amersham-Pharmacia, Piscattaway, N.J.) at a flow rate of 0.4 ml/min in Hepes-buffered saline (HBS). Hirudin and citrated plasmas (300 ul) were each mixed with 700 μl of 50 mM benzamidine and fractionated on a 1.6×60 cm Sephacryl-300 column at a flow rate of 0.4 ml/min in Tris-buffered saline. Fractions were analyzed for protein S antigen by ELISA, for protein S multimers by native PAGE, and for PS-direct. ELISAs were also performed on the fractions for FV, FX, and C4BP antigens
(§2) To further separate protein S forms in plasma, hirudin-plasma and citrated plasma were each subjected to gel filtration on a larger column (FIGS. 8B and 8C). […] Biotin-FXa could ligand blot (Heeb, et al. Protein S binds to and inhibits factor Xa. Proc Natl Acad Sci USA. 1994;91:2728-2732) to PS-C4BP, multimeric and monomeric protein S in fractionated hirudin plasma (FIG. 8C).

[3] = molecular target: T2, multimeric protein S in plasma (human, UniProt P07225 42-676); assay: as above
T2 construct: mature; also called protein S multimers in plasma; putative protein S multimers
T2 sequence (looked up): T1 sequence (looked up)
Procedure: as §1, §2

[4] = molecular target: T3, immunoaffinity-purified recombinant protein S, P07225; assay: self-association; sedimentation velocity analytical ultracentrifugation; conditions: remark: other sources report otherwise
T3 chain: T1 sequence (looked up)

[5] = molecular target: T3, immunoaffinity-purified recombinant …; assay: self-association; Superose-6 gel filtration and native 8% PAGE; conditions: remark: other sources report otherwise
[6] = molecular target: T4, monomeric protein S in plasma (human), P07225; assay: self-association; immunoblot of plasma from native PAGE; conditions: remark: other sources report otherwise
T4 chain: T1 sequence (looked up)

- binding [1]: binds
- binding [2]: binds
- binding [3]: binds
Molecule: Biotin-FXa (from UniProt P00742 41-179; P00742 235-488) (enzyme)

- binding [4]: binds
- binding [5]: binds
B1: immunoaffinity-purified recombinant protein S, P07225 42-676 (protein, UniProt P07225 42-676, looked up)
chain: T1 sequence (looked up)

- binding [6]: binds
B2: monomeric protein S in plasma, P07225 42-676 (protein, human, UniProt P07225 42-676, looked up)
chain: T1 sequence (looked up)
